Assay results published in PubChem BioAssay AID743266 (National Center for Advancing Translational Sciences (NCATS), 2014).
About 310 (0.076%) of roughly 410,000 compounds were called active. Inconclusive results, whose numbers are uncertain, are shown with a selection of clear calls. Calls come from the whole dose curve; as a rule, active = well fitted activation curve with a large enough effect; inconclusive = small, poorly fitted or top-dose-only effect, or another doubt; inactive = no such curve, though single readings can be large or run the other way. Where the call is inconclusive, the potency comes from a doubtful curve fit.

Chains of the proteins cited; added tags and fusions are not shown. Lines headed by an entry give the natural chain unless they say otherwise; changes in a name come on top.
UniProt Q03431: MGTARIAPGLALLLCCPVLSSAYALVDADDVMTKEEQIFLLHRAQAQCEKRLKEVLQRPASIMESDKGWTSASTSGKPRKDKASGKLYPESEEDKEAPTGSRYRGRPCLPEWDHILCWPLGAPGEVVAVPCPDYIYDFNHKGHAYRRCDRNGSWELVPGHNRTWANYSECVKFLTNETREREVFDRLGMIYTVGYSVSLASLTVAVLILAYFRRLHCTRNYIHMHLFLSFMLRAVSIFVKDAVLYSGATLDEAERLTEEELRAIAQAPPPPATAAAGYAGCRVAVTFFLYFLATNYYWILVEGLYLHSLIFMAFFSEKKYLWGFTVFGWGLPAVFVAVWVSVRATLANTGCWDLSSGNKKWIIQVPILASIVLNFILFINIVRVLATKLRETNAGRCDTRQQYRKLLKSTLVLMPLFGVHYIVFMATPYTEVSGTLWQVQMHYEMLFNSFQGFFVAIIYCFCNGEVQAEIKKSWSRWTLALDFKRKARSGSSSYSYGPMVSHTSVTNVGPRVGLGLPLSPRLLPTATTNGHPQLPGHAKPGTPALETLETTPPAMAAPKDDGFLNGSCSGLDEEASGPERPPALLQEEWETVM

Each compound was assayed against Parathyroid hormone/parathyroid hormone-related peptide receptor (Homo sapiens) (UniProt Q03431) (assay: qHTS for PTHR1 Agonists: Primary Screen). Conditions: HEK293 GP2 PTHR1 cells, GloSensor cAMP luminescence, 1 h; activation: at 115 µM (top of the series) unless noted; series mostly up to 115 µM.
Summary of the method: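 HEK-293-derived GP2 cells expressing PTHR1 and a GloSensor cAMP reporter, 3,000/well, plated overnight, given luciferin plus IBMX (each 0.5 mM as added) for 1 h at 37 °C, then compound for 1 h at 37 °C. Luminescence was read after 15 min at room temperature.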
Note: nearly all actives have a fitted effect of over 55% in size.
Potency is the fitted concentration of half-maximal effect.

activation, inconclusive:
Cc1n[nH]c(=S)n(NC(=O)CC(=O)Nn2c(=S)[nH]nc(C)c2=O)c1=O 64.1% [activator]
NC(=O)C1(N2CCCCC2)CCN(Cc2ccccc2Cl)CC1 76.9% [activator] [at 57.5 µM]
N#CCC(=O)Nc1ccc(C(=O)OCC(=O)N(C2CCCCC2)C2CCCCC2)cc1 -79.1% [activator]
O=C(CC1NCCNC1=O)Nc1cccc([N+](=O)[O-])c1 (stereo not given) 68% [activator]
O=C(CN1CCN(C(c2ccccc2)c2ccccc2)CC1)Nc1ccc(N2CCOCC2)cc1 74.5% [activator]
CCCCOc1c(C(=O)Nc2ccccc2)nnn1-c1ccccc1 -27.5% [activator]
CC(=O)N1CCN(CC(=O)Nc2cc(S(=O)(=O)N3CCOCC3)ccc2C)CC1 54.7% [activator]
O=C(NNc1ccc(-c2csnn2)cc1)c1ccccc1C(F)(F)F -17.1% [activator]
CCOc1ccccc1Nc1nc2ccccc2c2nncn12 72.3% [activator]
CC1CCN(c2nc3c(S(=O)(=O)c4ccccc4)nnn3c3ccsc23)CC1 36.6% [activator]
CSc1ccc(CN2CCC(n3nccc3NC(=O)CCCc3ccccc3)CC2)cc1 -58.5% [activator]
COc1ccc(NC(=O)Cc2c(C(=O)O)n(C)c3ccccc23)cc1OC 33.8% [activator]
COc1ccc(S(=O)(=O)N(CC(=O)NCC2CCCO2)Cc2ccccc2)cc1C (stereo not given) 52.7% [activator]
CCOc1ccc(CNC(=O)Cn2c(=O)c3cccn3c3ccc(F)cc32)cc1 53.2% [activator]

activation, inactive:
CCOC(=O)c1cnc(-n2nc(C)cc2C)nc1NC1CCCCC1 -32.5%
C=CCc1cccc(/C=N/NC(=O)CNc2cccc3ccccc23)c1O -6.92%
COc1ccc2oc(=O)c(C(=O)N3CCN(c4ccc(C)cc4)CC3)cc2c1 -33.1%
Cc1ccc(SCc2nc(-c3ccc(C(=O)NCCc4ccc(Cl)cc4)cc3)oc2C)cc1 -6.31%
CCCCc1ccc(NC(=S)Nc2ccc(Cl)c(S(=O)(=O)N(C)C)c2)cc1 -91%
CC(C)N1CC(O)=C(c2nc3ccccc3[nH]2)C1=N -3.59% [at 57.5 µM]
CC(C)Cc1ccc(-c2ccc3nccn3c2)cc1 -52.6%
COc1ccc(C(CNC(=O)Cc2ccccc2)N2CCCCC2)cc1 (stereo not given) -4.49%
CN(C)CCNC(=O)c1sc2nc(-c3ccccc3)cc(C(F)(F)F)c2c1N -0.504%
C=CCSc1nc2ccccc2n1C(=O)/C=C/c1cc(OC)c(OC)c(OC)c1 -25.4%
O=c1[nH]c(=O)n(Cc2ccccc2)c2c1C(C(F)(F)F)(C(F)(F)F)N=C(c1ccco1)N2 -17.7%
CCc1ccc(-c2cnc3ccccc3n2)cc1NC(=O)CNC(=O)c1ccccc1 -15.6%
CCCCCCn1c(=O)n2n(c1=O)[C@@H]1CN(S(=O)(=O)c3ccc(C)cc3)C[C@]1(O)[C@@H](OC(=O)NCc1ccccc1)C2 -4.25%

Taken from the entries so far for reference:
activation, inactive:
CN(C)CCNC(=O)c1sc2nc(-c3ccccc3)cc(C(F)(F)F)c2c1N -0.504%
C=CCSc1nc2ccccc2n1C(=O)/C=C/c1cc(OC)c(OC)c(OC)c1 -25.4%
O=c1[nH]c(=O)n(Cc2ccccc2)c2c1C(C(F)(F)F)(C(F)(F)F)N=C(c1ccco1)N2 -17.7%
CCc1ccc(-c2cnc3ccccc3n2)cc1NC(=O)CNC(=O)c1ccccc1 -15.6%

Next part:

outcome, inactive:
c1ccc(C(NCCNC(c2ccccc2)c2ccccc2)c2ccccc2)cc1
CC(C)OCC(O)Cn1c(N2CCCC2)nc2c1c(=O)n(C)c(=O)n2C (stereo not given)
O=C1c2cc(O)cc(O)c2C(=O)c2c1cc(O)c([C@@H](CO)CCO)c2O
CC(=O)N1CCN(CC(=O)Nc2ccc(C)c(S(=O)(=O)N(C)C)c2)CC1
COC(=O)c1sc(-c2ccccc2)cc1NC(=O)c1cccc(F)c1
COc1ccc2c(C)cc(SCn3nnc4ccccc4c3=O)nc2c1
O=c1c2cc3c(cc2nc2sc(Nc4ccc(F)cc4F)nn12)OCO3

Potency, active:
COc1ccc(OCC(=O)c2c(O)c3ccccc3oc2=O)cc1 17.8 µM

Potency, inconclusive:
Cc1noc(C)c1C(=O)NC1=NCCS1 141 µM [activator, single point]
Cc1cc(C)n2[nH]c(=O)c(N=Nc3ccc(S(N)(=O)=O)cc3)c2n1 48.4 µM [activator, partial curve, poor fit]
COCCC(=O)N1CCC(Oc2ccc(C(=O)NCCc3cnn(C)c3)cc2)CC1 112 µM [activator, single point]
COc1ccc(N(CC2CO2)S(=O)(=O)c2ccccc2)cc1 (stereo not given) 39.8 µM [activator, partial curve, poor fit]
CCOc1ccc(N(CC(=O)NC2CCCCC2)C(=O)CCCC(=O)Nc2ccccn2)cc1 89.1 µM [activator, partial curve, poor fit]
Cc1ccc(-n2cc(-c3ccccc3)c3c(N4CCCCC4)ncnc32)cc1 141 µM [activator, single point]
Cc1cc(C)c(NC(=O)CSc2ccc(-c3ccccn3)nn2)c(C)c1 141 µM [activator, single point]
C=CC(=O)NC(C)(C)Cc1ccccc1 44.7 µM [activator, single point]
COc1c(F)c(F)c(C(=O)Nc2ccc(N3CCN(Cc4ccccc4)CC3)cc2)c(F)c1F 2.82 µM [activator, single point]
N=C1/C(=C/c2ccc(-c3cccc(C(=O)O)c3)o2)C(=O)N=C2SC(CC(=O)N3CCOCC3)=NN12 44.7 µM [activator, partial curve, poor fit]
Cc1ccc(CSc2nnc(-c3ccco3)n2N)cc1 35.5 µM [activator, single point]
COc1ccc(C2C(C(=O)c3ccc(C)o3)=C(O)C(=O)N2Cc2cccnc2)cc1 (stereo not given) 89.1 µM [activator, single point]
O=[N+]([O-])c1ccc(Cl)c2cccnc12 31.6 µM [activator, single point]
CCOC(=O)c1c(S(=O)(=O)Nc2cccc(Cl)c2)c(C)n(C)c1C 24.2 µM [activator, partial curve, poor fit]
CCN1CCN(c2nc3c(c(=O)[nH]c(=O)n3C)n2Cc2ccccc2)CC1 89.1 µM [activator, single point]
O=C(CSc1ccc(Cl)cc1)Nn1cnnc1 7.94 µM [activator, partial curve, poor fit]
CCCn1c(CN2CCN(C(C)=O)CC2)nc2cc(S(=O)(=O)N(C)C)ccc21 2.82 µM [activator, full curve, poor fit]
c1ccc(-c2cn3c(n2)CCc2ccc4cccnc4c2-3)cc1 158 µM [activator, single point]
CC(=O)Nc1nc(C)c(Oc2ccc(Cl)cc2)c(=O)[nH]1 141 µM [activator, single point]
CC(C)CCNC(=O)C(c1ccco1)N(Cc1ccc(F)cc1)C(=O)c1snc(C(N)=O)c1N (stereo not given) 39.8 µM [activator, single point]
CCCCCC(=O)Nc1nc(C)c(-c2csc(Nc3cc(Cl)ccc3OC)n2)s1 22.4 µM [activator, single point]
Cc1sc2nc(C)n(/N=C/c3ccccc3O)c(=O)c2c1C 5.62 µM [activator, full curve, poor fit]
O=S(=O)(NCCc1ccccc1)c1ccc(F)cc1 2 µM [activator, full curve, poor fit]
O=C(N/N=C/c1ccc(Cl)cc1)Nc1ccccc1 44.7 µM [activator, single point]
Cc1csc2nc(O)c(C(=O)NCc3ccc4c(c3)OCO4)c(=O)n12 79.4 µM [activator, partial curve, poor fit]
COc1ccc(-n2nnnc2-c2cccnc2)cc1 12.6 µM [activator, partial curve, poor fit]
Cc1ccccc1CNC(=O)c1c(C)oc2c1C1=NCCN1C=N2 100 µM [activator, single point]
COc1cccc(NC(=O)COC(=O)c2c3c(nc4ccccc24)CCC(C)C3)c1 (stereo not given) 1.78 µM [activator, partial curve, poor fit]
COc1ccc(NS(=O)(=O)c2cc3[nH]c(=O)c(=O)[nH]c3cc2C)cc1OC 112 µM [activator, single point]
Cc1ccccc1OCC(O)CNC1CCCC1 (stereo not given) 141 µM [activator, single point]
CCC1(CC)NC(=O)N(CC(=O)OCC(=O)Nc2cc(C)ccc2C)C1=O 3.16 µM [activator, partial curve, poor fit]
COc1ccc(Cl)cc1NC(=O)N1CCC(CN2CCc3ccccc3C2)CC1 8.91 µM [activator, single point]
COc1cc(C(=O)NCCC(=O)NCCCN2CCCCC2C)cc(OC)c1OC (stereo not given) 35.5 µM [activator, partial curve, poor fit]
COc1cc2c(C(=O)N3CCN(c4ccccc4F)CC3)cn(C)c(=O)c2cc1OC 126 µM [activator, single point]
Cn1c(Cl)c(/C=N/OC(=O)c2ccc(Cl)cc2)c2ccccc21 141 µM [activator, single point]
